Results are given in words; binding and its absence hold for the method and conditions named. Binding calls can cover weak binding; strength is not graded here.
Biological target: talin-R7/R8 (residues 1358–1653) (mouse)
Test: crystal structure; talin-R7/R8 (32 mg/ml) mixed with Caskin2 LD peptide 1:2; sitting drop, 0.1 M bis-Tris propane pH 7.0, 0.1 M NaBr, 22–26% PEG3350; 2.7 Å; both purified

Chains of the proteins cited; added tags and fusions are not shown. Lines headed by an entry give the natural chain unless they say otherwise; changes in a name come on top.
UniProt Q8WXE0: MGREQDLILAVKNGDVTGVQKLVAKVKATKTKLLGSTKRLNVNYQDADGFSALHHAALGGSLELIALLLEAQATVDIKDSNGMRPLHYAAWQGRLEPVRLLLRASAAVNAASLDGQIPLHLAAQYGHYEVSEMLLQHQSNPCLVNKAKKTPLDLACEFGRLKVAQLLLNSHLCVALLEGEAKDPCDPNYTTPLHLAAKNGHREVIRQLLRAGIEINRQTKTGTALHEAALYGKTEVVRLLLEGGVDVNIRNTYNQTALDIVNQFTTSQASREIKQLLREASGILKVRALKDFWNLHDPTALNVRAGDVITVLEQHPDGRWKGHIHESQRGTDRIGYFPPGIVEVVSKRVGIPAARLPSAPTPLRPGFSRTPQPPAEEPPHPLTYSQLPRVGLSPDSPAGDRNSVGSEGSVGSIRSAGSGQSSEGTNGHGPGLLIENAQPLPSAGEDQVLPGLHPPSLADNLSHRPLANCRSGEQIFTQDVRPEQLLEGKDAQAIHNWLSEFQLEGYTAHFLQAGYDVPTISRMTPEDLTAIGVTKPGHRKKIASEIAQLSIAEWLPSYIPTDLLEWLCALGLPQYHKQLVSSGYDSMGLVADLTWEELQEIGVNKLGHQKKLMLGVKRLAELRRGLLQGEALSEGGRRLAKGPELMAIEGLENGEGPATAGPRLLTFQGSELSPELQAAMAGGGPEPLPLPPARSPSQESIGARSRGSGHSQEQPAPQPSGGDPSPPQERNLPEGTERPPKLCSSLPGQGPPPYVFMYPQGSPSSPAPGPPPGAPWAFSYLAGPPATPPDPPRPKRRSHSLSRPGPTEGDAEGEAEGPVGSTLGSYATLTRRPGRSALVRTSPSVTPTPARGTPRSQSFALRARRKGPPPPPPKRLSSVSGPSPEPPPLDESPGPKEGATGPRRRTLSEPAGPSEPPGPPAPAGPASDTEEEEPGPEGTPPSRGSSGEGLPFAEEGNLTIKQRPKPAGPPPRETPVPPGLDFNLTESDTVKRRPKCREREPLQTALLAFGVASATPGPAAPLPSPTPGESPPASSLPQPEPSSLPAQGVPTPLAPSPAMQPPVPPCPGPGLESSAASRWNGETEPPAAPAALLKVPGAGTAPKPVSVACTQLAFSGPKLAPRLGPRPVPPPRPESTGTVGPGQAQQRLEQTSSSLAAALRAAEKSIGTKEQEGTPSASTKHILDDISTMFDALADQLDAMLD

- binding: binds
Binder: STMFDALADQLDAMLD (peptide, UniProt Q8WXE0 1187-1202) [Caskin2-LD peptide (crystallised)]

— paper PMC11166458, “Caskin2 is a novel talin- and Abi1-binding protein that promotes cell motility” (Journal of Cell Science, 2024)
